{"source": "patent US20190350940A1", "about": "“PLATINUM COMPOUNDS, COMPOSITIONS, AND USES THEREOF” (priority 2015, published 2019)", "tested_on": "Calu-6 human NSCLC", "assay": "Calu-6 lung xenograft model", "type": "in vivo, mouse", "details": "Cisplatin 3 mg/kg", "description": "The effect of Compound 8 was evaluated in the Calu-6 human NSCLC nude mouse (female Crl:NU(NCr)-Foxn1^nu) xenograft model."}
{"smiles": "N.N.[Cl][Pt][Cl]", "note": "[Cisplatin]", "values": [{"measurement": "Statistical Significance versus Vehicle (TGD)", "value": "* (p < 0.05)"}]}
